# Assay results from article PMC5996148.
# The list shows a part of the results.
# Legend:
# Assay in all cases: protein microarray (ProtoArray v5.0), streptavidin-Alexa Fluor 647
# Conditions in all cases: 3'-biotin; 20 mM Tris (pH 7.5), 5 mM MgCl2, 100 mM KCl, 0.1% Tween-20, A/T-rich and random oligonucleotide blockers; temperature not stated; high values mean tight binding
# [1] = tested on: cDNA clone MGC:17055 IMAGE:4338834 (human)
# [2] = tested on: cDNA clone MGC:21889 IMAGE:4345550, complete cds (human)
# [3] = tested on: cDNA clone MGC:23693 IMAGE:4767650 (human)
# [4] = tested on: cDNA clone MGC:25008 IMAGE:4453355, complete cds (human)
# [5] = tested on: cDNA clone MGC:25024 IMAGE:4470095 (human)
# [6] = tested on: cDNA clone MGC:26894 IMAGE:4828475 (human)
# [7] = tested on: cDNA clone MGC:31944 IMAGE:4878869, complete cds (human)
# [8] = tested on: cDNA clone MGC:3195 IMAGE:3357276 (human)
# [9] = tested on: cDNA clone MGC:32654 IMAGE:4701898, complete cds (human)
# [10] = tested on: cDNA clone MGC:34832 IMAGE:5203730 (human)
# [11] = tested on: cDNA clone MGC:39134 IMAGE:4892821 (human)
# [12] = tested on: cDNA clone MGC:40177 IMAGE:5167345, complete cds (human)
# [13] = tested on: cDNA clone MGC:40426 IMAGE:5178085, complete cds (human)
# [14] = tested on: cDNA clone MGC:48448 IMAGE:5266019 (human)
# [15] = tested on: cDNA clone MGC:52019 IMAGE:5188979 (human)
# [16] = tested on: cDNA clone MGC:54300 IMAGE:6500495, complete cds (human)
# [17] = tested on: cDNA clone MGC:5619 IMAGE:3462332, complete cds (human)
# [18] = tested on: cDNA clone MGC:59959 IMAGE:4137660, complete cds (human)
# [19] = tested on: cDNA clone MGC:64884 IMAGE:5194313 (human)
# [20] = tested on: cDNA clone MGC:70358 IMAGE:5539182 (human)
sequence,measurement,setting,value
GGGAGGCTGAGGCAGG [G4-1 biotinylated (PQS2)],binding signal,[1],-0.349 z-score
same,binding signal,[2],-0.285 z-score
same,binding signal,[3],-0.341 z-score
same,binding signal,[4],-0.336 z-score
same,binding signal,[5],-0.282 z-score
same,binding signal,[6],-0.258 z-score
same,binding signal,[7],-0.291 z-score
same,binding signal,[8],-0.281 z-score
same,binding signal,[9],-0.358 z-score
same,binding signal,[10],-0.33 z-score
same,binding signal,[11],-0.334 z-score
same,binding signal,[12],-0.334 z-score
same,binding signal,[13],-0.312 z-score
same,binding signal,[14],-0.325 z-score
same,binding signal,[15],-0.328 z-score
same,binding signal,[16],-0.24 z-score
same,binding signal,[17],-0.286 z-score
same,binding signal,[18],-0.297 z-score
same,binding signal,[19],-0.321 z-score
same,binding signal,[20],-0.353 z-score

# Random excerpt: 2 entries already listed, in no set order.
sequence,measurement,setting,value
GGGAGGCTGAGGCAGG [G4-1 biotinylated (PQS2)],binding signal,[3],-0.341 z-score
same,binding signal,[5],-0.282 z-score
